Measurements as given in patent EP2926811A1, “ARTEMETHER-CONTAINING PHARMACEUTICAL COMPOSITION, PREPARATION, AND USE THEREOF” (Kunming Pharmaceutical Corp., priority 2012, dated 2014).
At least one compound was matched to its structure with a doubt left.

System: 7 human tumor cell lines
Assay: modified MTT method, summary over the panel of human tumor cell lines
Type: cell-based
From the text: HL-60: (human promyelocytic leukemia cell line); K562 (human chronic myelocytic leukemia cell line); HT-29 (human colon cancer cell line); PC-3 (human prostate cancer cell line); A549 (human non-small cell lung cancer cell line); MKN-28 (human gastric cancer cell line); Hep2 (human laryngeal cancer cell line), all of which were purchased from Cell Bank of Shanghai Institutes for Biological Sciences, the Chinese Academy of Sciences.
Influence of the five test samples on the proliferation of 7 human tumor cell lines was determined via a modified MTT method.
Cells in logarithmic growth phase were taken, adjusted to a certain concentration and then added into a 96 well culture plate. After culture of adherent cells for a period until adherence, the test samples were added; and for suspension cells, the test samples were added after inoculation. […] After dissolving in uniformity, it was continued to be placed in the incubator at 37°C, 5% CO2 for a period of time, and the OD value of each well was determined under a wavelength of 570 nm with a microplate reader, according to which the results were calculated.
The inhibition rate was calculated by using Microsoft Excel 2003, and median inhibitory concentration IC50 was calculated with a LOGIT method, which was used as an indicator for judging the inhibitory capability.

SMILES	inhibitory effect in vitro (on five tumor cell lines HL-60, K562, MKN-28, HT-29, Hep2)	inhibitory effect on the 7 human tumor cell lines in vitro (HL-60, K562, A549, HT-29, PC-3, MKN-28, Hep2)
C[C@H]1[C@@H](O)O[C@@H]2O[C@@]3(C)CC[C@H]4[C@H](C)CC[C@@H]1[C@@]24OO3 [dihydroartemisinin]	relatively apparent inhibitory effect	
CO[C@H]1O[C@@H]2O[C@@]3(C)CC[C@H]4[C@H](C)CC[C@@H]([C@H]1C)[C@@]24OO3 [artemether drug substance, (3R,5αS,6R,8αS,9R,10S,12R,12αR)-decahydro-10-methoxy-3,6,9-trimethyl-3,12-epoxy-12H-pyrano[4,3-j]-1,2-benzodioxepin]		no apparent inhibitory effect
